Data on 2 molecules can be found in paper PMC9157009, “Protein proximity networks and functional evaluation of the casein kinase 1 gamma family reveal unique roles for CK1γ3 in WNT signaling” (The Journal of Biological Chemistry, 2022).

The data set deals with 403 WT human kinases. In words: scanMAX kinome-wide profiling (DiscoverX), whole panel. The format is binding. The note with it: profiled at 1 μM against 403 WT kinases.

With `CN(C)CC(=O)Nc1n[nH]c2ccc(-c3cn(Cc4ccccc4)nn3)cc12` [AKI00000062a], the “number of kinases with PoC <10” value worked out at 17.
In the case of `COc1cnc(COc2ccc(F)c(F)c2)cc1-c1cc2c([nH]1)CCNC2=O` [FP1-24-2, 2-(2-((3,4-difluorophenoxy)methyl)-5-methoxypyridin-4-yl)-1,5,6,7-tetrahydro-4H-pyrrolo[3,2-c]pyridin-4-one], the “number of kinases with PoC <10” value worked out at 14.
